Measurements: article PMC3438196
No constants are given. Whether binding was seen depends on the method and setting. Some binding calls cover weakened binding; strength is not graded here.

Amino acid sequences for entries named in this document (tags omitted). A change or cut given only in a name is not applied to a line headed by its entry. Residues count along the entry.
UniProt Q9HC16: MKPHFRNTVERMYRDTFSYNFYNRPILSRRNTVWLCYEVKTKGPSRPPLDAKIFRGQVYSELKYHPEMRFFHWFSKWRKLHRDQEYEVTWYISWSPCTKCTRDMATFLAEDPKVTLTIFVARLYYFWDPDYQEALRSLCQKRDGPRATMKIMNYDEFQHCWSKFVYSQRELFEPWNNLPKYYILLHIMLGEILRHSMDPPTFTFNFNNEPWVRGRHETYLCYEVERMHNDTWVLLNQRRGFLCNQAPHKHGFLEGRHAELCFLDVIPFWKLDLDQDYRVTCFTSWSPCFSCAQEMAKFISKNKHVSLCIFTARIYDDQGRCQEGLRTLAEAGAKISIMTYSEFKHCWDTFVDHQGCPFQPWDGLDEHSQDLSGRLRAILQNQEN
UniProt P58753: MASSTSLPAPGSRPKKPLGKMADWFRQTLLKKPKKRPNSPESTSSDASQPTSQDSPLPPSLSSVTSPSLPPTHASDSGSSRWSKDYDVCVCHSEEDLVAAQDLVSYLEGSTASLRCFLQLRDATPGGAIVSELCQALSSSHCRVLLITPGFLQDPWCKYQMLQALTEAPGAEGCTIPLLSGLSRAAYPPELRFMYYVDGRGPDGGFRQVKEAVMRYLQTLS
UniProt O00206, residues 24-839: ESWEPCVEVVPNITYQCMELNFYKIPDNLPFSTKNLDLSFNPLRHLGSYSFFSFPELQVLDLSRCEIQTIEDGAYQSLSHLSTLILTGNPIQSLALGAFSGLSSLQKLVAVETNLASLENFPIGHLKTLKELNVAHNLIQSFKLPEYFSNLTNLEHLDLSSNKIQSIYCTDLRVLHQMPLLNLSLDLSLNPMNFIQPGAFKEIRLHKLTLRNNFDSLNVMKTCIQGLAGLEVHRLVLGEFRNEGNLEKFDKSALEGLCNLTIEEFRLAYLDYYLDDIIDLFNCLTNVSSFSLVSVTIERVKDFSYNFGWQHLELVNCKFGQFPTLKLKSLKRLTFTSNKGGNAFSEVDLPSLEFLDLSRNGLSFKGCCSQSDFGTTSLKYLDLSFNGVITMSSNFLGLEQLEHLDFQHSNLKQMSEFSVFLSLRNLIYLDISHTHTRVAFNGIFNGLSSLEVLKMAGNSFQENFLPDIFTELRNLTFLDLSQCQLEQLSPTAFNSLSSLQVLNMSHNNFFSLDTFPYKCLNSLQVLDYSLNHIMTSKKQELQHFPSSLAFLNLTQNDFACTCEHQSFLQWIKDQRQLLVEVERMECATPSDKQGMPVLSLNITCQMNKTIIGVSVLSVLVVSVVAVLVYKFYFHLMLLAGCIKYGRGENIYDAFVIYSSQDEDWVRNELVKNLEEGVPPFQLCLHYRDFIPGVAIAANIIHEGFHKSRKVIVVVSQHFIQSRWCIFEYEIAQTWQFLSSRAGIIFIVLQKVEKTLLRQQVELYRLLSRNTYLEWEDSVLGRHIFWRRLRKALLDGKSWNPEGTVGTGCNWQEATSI

Experiments:
[1] = target: Apobec3G C261A MAPPIT bait (human) (UniProt Q9HC16); experiment: two-hybrid; MAPPIT (mammalian two-hybrid) in intact HEK293T cells: bait on the EpoR/leptin receptor chimera, prey on gp130 fragments, pXP2d2-rPAP1-luciferase reporter; fold induction of luciferase, Epo-stimulated (10 ng/ml hEpo) over unstimulated; 6-well or 96-well calcium phosphate transfection
[2] = target: Apobec3G H248A MAPPIT bait (human) (UniProt Q9HC16); experiment: as above
[3] = target: Apobec3G Q237K+R238C MAPPIT bait (human) (UniProt Q9HC16); experiment: as above
[4] = target: Apobec3G A51V/P129S random mutant bait (pCEL-Apobec3G-GFP) (human) (UniProt Q9HC16); experiment: two-hybrid; random mutagenesis MAPPIT: pCEL-Apobec3G-GFP baits (wild type, W127A, error prone PCR mutants), automated 384-well transfection of HEK293T cells, 1.5 ng bait and 6.5 ng prey plasmid per well, overnight 10 ng/ml hEpo; relative MAPPIT signal as % of the median of the six wild type baits on the plate
[5] = target: Apobec3G D128G random mutant bait (pCEL-Apobec3G-GFP) (human) (UniProt Q9HC16); experiment: as above
[6] = target: Toll-like receptor 4 (TLR4) adapter protein TIRAP/Mal (UniProt P58753); experiment: two-hybrid; random mutagenesis MAPPIT, unpublished results named in the discussion

Measured: binding

Apobec3G MAPPIT prey (pMG2-Apobec3G) (from UniProt Q9HC16 1-384)
not listed: [6]
binds: all other assays above

Toll-like receptor 4 (TLR4) (from UniProt O00206 24-839)
binds: [6]
